Assay results: PMC6208443 (Nature Communications, 2018)

Columns and labels:
EDM2 = experiment: Peptide affinity purification and mass spectrometry, EDM2; type: binding, Arabidopsis thaliana; conditions: pull-down of nuclear extracts of Arabidopsis flowers with 2 μg biotinylated peptide, 3 h, 4 °C; LC-MS/MS
Experimental: To extract the nuclear proteins for peptide affinity purification, 1 g of wild-type Arabidopsis flowers was harvested and ground in liquid nitrogen. […] The filtrates were centrifuged at 2000 g for 15 min at 4 °C to precipitate the nuclei. Nuclear pellets were washed two times with 1 ml of Honda buffer and then were resuspended in 600 μl of Nuclei Lysis Buffer (50 mM Tris-HCl pH 8.0, 150 mM NaCl, 1% NP40, 0.5 mM DTT, 1 mM PMSF, Roche protease inhibitor cocktail). After sonication, nuclei extracts were centrifuged at 20,000 g for 10 min at 4 °C. The supernatant was incubated with 2 μg of biotinylated histone peptides and Streptavidin Magnetic Beads (Thermo Scientific, 88816) for 3 h with rotation at 4 °C. […] After incubation, beads were washed three times with wash buffer 1 (320 mM NaCl, 50 mM Tris-HCl pH 8.0, 0.5% NP40), and three times with wash buffer 2 (150 mM NaCl, 50 mM Tris-HCl pH 8.0).
For LC-MS/MS analysis, IP beads with captured proteins were lysed in 12 mM sodium deoxycholate (SDC)-sodium lauroyl sarcosinate (SLS): 100 mM Tris-HCl (pH 8.5), 12 mM SDC, and 12 mM SLS. […] The dried peptides were resuspended in 30 μL of 0.3% formic acid (FA) with 3% acetonitrile (ACN), quantified by BCA assay (Thermo Fisher Scientific), and injected into an Easy-nLC 1000 (Thermo Fisher Scientific). […]

CHR17 = experiment: Peptide affinity purification and mass spectrometry, CHR17; type: binding, Arabidopsis thaliana; conditions: pull-down of nuclear extracts of Arabidopsis flowers with 2 μg biotinylated peptide, 3 h, 4 °C; LC-MS/MS

Substance	Coverage (%) (EDM2)	Coverage (%) (CHR17)
H3(1-21)K9me1: synthesized biotinylated H3(1-21)K9me1 peptide, EMD Millipore	5.47	
H3(1-21)K9me2: synthesized biotinylated H3(1-21)K9me2 peptide, EMD Millipore	4.39	
H3(1-21)K9me3: synthesized biotinylated H3(1-21)K9me3 peptide, EMD Millipore		4.66
